Test results reported in the supplement of paper PMC12823440, “Inhibitors supercharge kinase turnover through native proteolytic circuits” (Nature, 2025).
Counter-ions that a name gives are not always drawn. The list shows a part of the results. The calls rarely recur for the same compound in another form.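 Kinases, fused to nanoluciferase, were expressed in K562 cells; luminescence was measured every 4 h from 2 to 18 h as percent of control (DMSO = 100%, positive control = 0%). A time point is decreased if signal falls significantly (2 sigma). Hits were called by the authors by a rule that is not shown; the count of time points alone does not decide it.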

Sequences of proteins named here, by UniProt entry; tags and fusion partners are left off. A change or cut given only in a name is not applied to a line headed by its entry.
UniProt P22607, whole entry, looked up: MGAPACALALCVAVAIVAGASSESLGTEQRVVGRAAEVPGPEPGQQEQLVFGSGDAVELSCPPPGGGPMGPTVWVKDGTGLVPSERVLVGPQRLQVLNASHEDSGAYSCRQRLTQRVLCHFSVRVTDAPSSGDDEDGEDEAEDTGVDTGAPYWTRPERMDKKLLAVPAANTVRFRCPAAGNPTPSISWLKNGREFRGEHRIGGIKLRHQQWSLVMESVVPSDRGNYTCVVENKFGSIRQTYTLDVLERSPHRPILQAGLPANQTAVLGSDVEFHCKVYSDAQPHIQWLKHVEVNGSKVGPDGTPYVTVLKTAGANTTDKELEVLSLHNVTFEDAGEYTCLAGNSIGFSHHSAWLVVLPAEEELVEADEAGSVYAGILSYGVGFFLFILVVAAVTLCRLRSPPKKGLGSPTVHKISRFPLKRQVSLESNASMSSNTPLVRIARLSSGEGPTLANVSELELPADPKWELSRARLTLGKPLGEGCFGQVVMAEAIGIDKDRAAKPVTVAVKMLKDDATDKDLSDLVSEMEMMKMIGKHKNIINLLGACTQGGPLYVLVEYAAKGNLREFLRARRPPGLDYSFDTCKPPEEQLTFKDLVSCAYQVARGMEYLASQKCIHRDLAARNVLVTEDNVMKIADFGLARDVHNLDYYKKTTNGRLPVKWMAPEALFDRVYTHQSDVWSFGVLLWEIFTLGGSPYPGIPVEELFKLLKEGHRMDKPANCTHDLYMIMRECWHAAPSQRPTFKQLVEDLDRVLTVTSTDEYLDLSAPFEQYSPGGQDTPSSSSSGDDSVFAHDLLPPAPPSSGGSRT
UniProt P36888, whole entry: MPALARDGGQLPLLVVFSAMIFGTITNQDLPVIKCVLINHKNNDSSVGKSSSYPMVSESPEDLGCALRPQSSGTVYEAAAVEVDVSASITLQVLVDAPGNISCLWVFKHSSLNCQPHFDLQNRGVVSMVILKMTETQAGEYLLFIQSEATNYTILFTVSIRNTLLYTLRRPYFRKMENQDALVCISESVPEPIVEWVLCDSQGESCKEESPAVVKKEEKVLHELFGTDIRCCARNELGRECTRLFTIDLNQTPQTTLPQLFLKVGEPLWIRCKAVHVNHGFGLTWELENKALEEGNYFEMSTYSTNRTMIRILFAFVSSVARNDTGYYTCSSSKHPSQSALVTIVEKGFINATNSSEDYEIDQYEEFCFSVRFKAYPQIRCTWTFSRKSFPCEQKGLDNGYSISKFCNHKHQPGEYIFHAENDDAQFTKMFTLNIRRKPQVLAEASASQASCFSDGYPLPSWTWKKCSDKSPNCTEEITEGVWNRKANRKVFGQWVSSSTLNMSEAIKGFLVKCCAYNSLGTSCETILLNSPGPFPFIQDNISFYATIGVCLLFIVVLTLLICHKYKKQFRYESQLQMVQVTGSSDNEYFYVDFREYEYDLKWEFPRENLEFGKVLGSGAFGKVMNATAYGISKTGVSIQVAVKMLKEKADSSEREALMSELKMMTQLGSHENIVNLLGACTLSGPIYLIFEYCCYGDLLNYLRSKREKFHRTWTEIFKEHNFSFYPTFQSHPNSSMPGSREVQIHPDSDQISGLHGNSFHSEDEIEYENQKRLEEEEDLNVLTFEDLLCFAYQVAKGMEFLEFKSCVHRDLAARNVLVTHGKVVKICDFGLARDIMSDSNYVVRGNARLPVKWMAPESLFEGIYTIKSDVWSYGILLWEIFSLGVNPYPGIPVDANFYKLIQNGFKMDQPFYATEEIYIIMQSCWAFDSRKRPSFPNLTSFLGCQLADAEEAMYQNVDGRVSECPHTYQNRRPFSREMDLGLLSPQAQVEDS
UniProt Q9Y616: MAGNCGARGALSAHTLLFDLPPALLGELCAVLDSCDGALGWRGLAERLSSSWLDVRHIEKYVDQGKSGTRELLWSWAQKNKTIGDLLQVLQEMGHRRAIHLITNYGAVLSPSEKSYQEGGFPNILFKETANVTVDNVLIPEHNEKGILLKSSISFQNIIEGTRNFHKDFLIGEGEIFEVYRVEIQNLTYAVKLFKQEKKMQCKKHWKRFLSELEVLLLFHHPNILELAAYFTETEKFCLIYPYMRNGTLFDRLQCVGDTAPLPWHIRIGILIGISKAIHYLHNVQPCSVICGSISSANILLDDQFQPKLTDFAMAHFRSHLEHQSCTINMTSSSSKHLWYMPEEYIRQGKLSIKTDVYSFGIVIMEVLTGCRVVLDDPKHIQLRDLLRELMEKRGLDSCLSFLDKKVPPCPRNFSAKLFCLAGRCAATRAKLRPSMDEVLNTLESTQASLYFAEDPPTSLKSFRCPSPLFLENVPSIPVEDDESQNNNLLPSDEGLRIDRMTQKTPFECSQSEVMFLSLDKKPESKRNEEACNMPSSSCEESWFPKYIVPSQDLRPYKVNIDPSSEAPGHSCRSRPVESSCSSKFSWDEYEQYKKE
UniProt P23458: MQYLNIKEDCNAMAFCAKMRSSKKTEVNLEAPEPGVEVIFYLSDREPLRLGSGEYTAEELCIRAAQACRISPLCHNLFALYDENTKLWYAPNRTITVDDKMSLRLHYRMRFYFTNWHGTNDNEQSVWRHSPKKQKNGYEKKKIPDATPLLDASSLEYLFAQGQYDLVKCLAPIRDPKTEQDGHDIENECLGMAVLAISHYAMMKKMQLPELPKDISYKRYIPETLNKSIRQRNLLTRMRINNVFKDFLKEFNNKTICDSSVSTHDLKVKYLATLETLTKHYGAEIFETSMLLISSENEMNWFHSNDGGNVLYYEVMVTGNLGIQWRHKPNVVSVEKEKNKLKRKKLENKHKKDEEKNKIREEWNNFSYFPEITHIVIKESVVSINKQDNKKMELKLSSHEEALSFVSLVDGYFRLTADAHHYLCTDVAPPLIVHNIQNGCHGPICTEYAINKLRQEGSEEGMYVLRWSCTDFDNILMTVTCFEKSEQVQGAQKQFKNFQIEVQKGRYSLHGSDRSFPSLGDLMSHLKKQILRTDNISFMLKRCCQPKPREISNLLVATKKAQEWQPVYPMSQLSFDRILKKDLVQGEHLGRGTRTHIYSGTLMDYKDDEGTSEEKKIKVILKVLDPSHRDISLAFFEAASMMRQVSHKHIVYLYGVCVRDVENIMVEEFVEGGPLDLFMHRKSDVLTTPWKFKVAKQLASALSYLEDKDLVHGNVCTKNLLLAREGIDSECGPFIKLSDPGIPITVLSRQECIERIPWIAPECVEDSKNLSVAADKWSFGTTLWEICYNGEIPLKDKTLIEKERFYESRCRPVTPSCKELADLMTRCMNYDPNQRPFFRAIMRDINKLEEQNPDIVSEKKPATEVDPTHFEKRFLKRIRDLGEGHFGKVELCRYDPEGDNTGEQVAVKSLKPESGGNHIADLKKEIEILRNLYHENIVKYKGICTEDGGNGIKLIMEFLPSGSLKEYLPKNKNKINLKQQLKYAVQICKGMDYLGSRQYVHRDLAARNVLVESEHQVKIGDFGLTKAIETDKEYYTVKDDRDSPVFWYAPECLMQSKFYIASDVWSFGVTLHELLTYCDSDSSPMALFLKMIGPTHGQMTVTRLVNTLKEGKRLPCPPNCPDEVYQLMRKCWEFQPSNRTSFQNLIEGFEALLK
UniProt P06239: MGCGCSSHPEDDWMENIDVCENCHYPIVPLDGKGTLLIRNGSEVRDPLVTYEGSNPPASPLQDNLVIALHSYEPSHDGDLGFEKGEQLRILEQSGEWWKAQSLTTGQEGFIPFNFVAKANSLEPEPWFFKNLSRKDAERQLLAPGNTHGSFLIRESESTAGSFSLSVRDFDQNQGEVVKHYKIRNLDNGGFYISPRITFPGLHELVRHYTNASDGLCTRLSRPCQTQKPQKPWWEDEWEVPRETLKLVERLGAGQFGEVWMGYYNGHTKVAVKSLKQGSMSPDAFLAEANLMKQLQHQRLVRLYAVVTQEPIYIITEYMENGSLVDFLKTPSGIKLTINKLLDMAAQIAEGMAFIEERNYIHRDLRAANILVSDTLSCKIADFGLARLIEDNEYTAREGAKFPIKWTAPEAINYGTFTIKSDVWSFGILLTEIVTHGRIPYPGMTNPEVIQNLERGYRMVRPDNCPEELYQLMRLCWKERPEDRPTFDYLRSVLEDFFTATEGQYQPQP
UniProt P53671: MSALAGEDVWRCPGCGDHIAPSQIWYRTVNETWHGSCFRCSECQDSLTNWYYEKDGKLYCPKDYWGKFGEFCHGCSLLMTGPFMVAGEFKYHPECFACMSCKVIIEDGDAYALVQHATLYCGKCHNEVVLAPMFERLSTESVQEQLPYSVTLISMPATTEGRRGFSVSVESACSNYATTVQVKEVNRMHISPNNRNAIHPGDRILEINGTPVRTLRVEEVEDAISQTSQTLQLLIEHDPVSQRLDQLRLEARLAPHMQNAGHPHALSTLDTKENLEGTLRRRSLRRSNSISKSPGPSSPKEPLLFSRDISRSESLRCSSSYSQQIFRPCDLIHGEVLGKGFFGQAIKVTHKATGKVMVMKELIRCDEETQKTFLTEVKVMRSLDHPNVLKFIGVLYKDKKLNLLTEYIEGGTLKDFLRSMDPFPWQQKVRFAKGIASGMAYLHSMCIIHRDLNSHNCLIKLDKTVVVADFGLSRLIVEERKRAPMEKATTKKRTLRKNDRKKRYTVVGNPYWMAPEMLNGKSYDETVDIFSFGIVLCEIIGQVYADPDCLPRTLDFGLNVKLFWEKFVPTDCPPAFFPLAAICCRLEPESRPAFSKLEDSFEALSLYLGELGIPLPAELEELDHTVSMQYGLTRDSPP
UniProt Q8IWU2: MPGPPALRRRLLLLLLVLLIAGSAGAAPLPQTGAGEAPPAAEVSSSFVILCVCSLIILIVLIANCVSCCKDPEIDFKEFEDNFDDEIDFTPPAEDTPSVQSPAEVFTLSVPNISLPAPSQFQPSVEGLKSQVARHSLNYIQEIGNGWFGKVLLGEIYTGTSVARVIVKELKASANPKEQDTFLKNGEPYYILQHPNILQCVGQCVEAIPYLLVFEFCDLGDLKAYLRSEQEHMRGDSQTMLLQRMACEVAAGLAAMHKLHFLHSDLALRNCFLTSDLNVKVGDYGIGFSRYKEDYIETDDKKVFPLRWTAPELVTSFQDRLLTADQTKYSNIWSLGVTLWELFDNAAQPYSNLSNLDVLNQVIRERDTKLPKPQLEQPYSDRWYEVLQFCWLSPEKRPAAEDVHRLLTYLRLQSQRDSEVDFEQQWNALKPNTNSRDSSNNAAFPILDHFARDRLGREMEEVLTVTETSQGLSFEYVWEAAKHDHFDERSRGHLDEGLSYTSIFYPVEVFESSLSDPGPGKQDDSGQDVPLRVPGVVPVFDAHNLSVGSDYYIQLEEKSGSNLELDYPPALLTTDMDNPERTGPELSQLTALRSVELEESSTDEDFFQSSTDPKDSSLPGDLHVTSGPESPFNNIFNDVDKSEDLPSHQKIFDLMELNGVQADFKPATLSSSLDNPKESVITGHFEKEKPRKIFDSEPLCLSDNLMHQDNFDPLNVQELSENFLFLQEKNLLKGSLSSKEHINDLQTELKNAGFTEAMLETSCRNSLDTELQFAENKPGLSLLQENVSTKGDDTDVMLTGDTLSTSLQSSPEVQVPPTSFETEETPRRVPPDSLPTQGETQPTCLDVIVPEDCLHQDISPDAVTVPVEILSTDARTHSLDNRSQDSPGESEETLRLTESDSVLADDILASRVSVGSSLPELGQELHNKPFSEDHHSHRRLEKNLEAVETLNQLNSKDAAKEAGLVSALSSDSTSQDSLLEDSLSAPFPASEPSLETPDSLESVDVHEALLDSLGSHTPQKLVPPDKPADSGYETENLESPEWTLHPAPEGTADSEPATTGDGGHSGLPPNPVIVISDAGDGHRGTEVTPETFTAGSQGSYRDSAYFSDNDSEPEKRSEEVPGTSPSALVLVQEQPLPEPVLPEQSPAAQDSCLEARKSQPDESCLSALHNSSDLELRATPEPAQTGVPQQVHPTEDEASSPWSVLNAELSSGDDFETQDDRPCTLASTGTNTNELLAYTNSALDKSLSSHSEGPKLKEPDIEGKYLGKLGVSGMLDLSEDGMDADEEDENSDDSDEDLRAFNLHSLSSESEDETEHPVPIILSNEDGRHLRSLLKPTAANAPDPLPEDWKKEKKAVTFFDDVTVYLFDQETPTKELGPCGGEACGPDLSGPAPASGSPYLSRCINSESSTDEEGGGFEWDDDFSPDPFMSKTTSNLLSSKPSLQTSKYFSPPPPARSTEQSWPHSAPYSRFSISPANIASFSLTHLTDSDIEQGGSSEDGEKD

Key:
Test in all cases: kinase-Nluc reporter destabilization hit call (1 = scored as downregulated) (binary); higher = compound decreases kinase abundance
Conditions in all cases: K562, 2-18 h
ERN1 = ERN1 (UniProt O75460)
FGFR1 = FGFR1 (UniProt P11362)
FGFR2 = FGFR2 (UniProt P21802)
FGFR3 = FGFR3 (UniProt P22607)
FGR = FGR (UniProt P09769)
FLT3 = FLT3 (UniProt P36888)
FYN = FYN (UniProt P06241)
GSK3A = GSK3A (UniProt P49840)
HER2 = HER2 (UniProt P04626)
INSRR = INSRR (UniProt P14616)
IRAK3 = IRAK3 (UniProt Q9Y616)
JAK1 = JAK1 (UniProt P23458)
LCK = LCK (UniProt P06239)
LIMK1 = LIMK1 (UniProt P53667)
LIMK2 = LIMK2 (UniProt P53671)
LMTK2 = LMTK2 (UniProt Q8IWU2)
LYN = LYN (UniProt P07948)
MAP2K1 = MAP2K1 (UniProt Q02750)
MAP2K2 = MAP2K2 (UniProt P36507)
MAP4K2 = MAP4K2 (UniProt Q12851)

Measured: kinase-Nluc reporter destabilization hit call

CC(C)Nc1cc(-c2c[nH]c(C(=O)N[C@H](CO)c3cccc(Cl)c3)c2)c(Cl)cn1 [Ulixertinib]
inactive: ERN1; 10 µM 0 | FGFR1; 10 µM 0 | FGFR2; 10 µM 0 | FGFR3; 10 µM 0 | FGR; 10 µM 0 | FLT3; 10 µM 0 | FYN; 10 µM 0 | GSK3A; 10 µM 0 | HER2; 10 µM 0 | INSRR; 10 µM 0 | IRAK3; 10 µM 0 | JAK1; 10 µM 0 | LCK; 10 µM 0 | LIMK1; 10 µM 0 | LIMK2; 10 µM 0 | LMTK2; 10 µM 0 | LYN; 10 µM 0 | MAP2K1; 10 µM 0 | MAP2K2; 10 µM 0 | MAP4K2; 10 µM 0

CN(C)C(=O)c1cc2cnc(Nc3ccc(N4CCNCC4)cn3)nc2n1C1CCCC1 [Ribociclib]
inactive: ERN1; 10 µM 0 | FGFR1; 10 µM 0 | FGFR2; 10 µM 0 | FGFR3; 10 µM 0 | FGR; 10 µM 0 | FLT3; 10 µM 0 | FYN; 10 µM 0 | GSK3A; 10 µM 0 | HER2; 10 µM 0 | INSRR; 10 µM 0 | IRAK3; 10 µM 0 | JAK1; 10 µM 0 | LCK; 10 µM 0 | LIMK1; 10 µM 0 | LIMK2; 10 µM 0 | LMTK2; 10 µM 0 | LYN; 10 µM 0 | MAP2K1; 10 µM 0 | MAP2K2; 10 µM 0 | MAP4K2; 10 µM 0

COCCOc1cc(F)c2c(Nc3ccc(NC(=O)Cn4cc(C(C)C)nn4)cc3)ncnc2c1
inactive: ERN1; 10 µM 0 | FGFR1; 10 µM 0 | FGFR2; 10 µM 0 | FGFR3; 10 µM 0 | FGR; 10 µM 0 | FLT3; 10 µM 0 | FYN; 10 µM 0 | GSK3A; 10 µM 0 | HER2; 10 µM 0 | INSRR; 10 µM 0 | IRAK3; 10 µM 0 | JAK1; 10 µM 0 | LCK; 10 µM 0 | LIMK1; 10 µM 0 | LIMK2; 10 µM 0 | LMTK2; 10 µM 0 | LYN; 10 µM 0 | MAP2K1; 10 µM 0 | MAP2K2; 10 µM 0 | MAP4K2; 10 µM 0

CS(=O)(=O)N1CCN(Cc2cc3nc(-c4cccc5[nH]ncc45)nc(N4CCOCC4)c3s2)CC1 [Pictilisib (dimethanesulfonate)]
inactive: ERN1; 10 µM 0 | FGFR1; 10 µM 0 | FGFR2; 10 µM 0 | FGFR3; 10 µM 0 | FGR; 10 µM 0 | FLT3; 10 µM 0 | FYN; 10 µM 0 | GSK3A; 10 µM 0 | HER2; 10 µM 0 | INSRR; 10 µM 0 | IRAK3; 10 µM 0 | JAK1; 10 µM 0 | LCK; 10 µM 0 | LIMK1; 10 µM 0 | LIMK2; 10 µM 0 | LMTK2; 10 µM 0 | LYN; 10 µM 0 | MAP2K1; 10 µM 0 | MAP2K2; 10 µM 0 | MAP4K2; 10 µM 0

CCN(CC)Cc1ccc(OC)c(-c2cc3c(-c4ccc(C(=O)O)c(C(C)C)c4)ccnc3[nH]2)c1
inactive: ERN1; 2.5 µM 0 | ERN1; 10 µM 0 | FGFR1; 2.5 µM 0 | FGFR1; 10 µM 0 | FGFR2; 2.5 µM 0 | FGFR2; 10 µM 0 | FGFR3; 2.5 µM 0 | FGFR3; 10 µM 0 | FGR; 2.5 µM 0 | FGR; 10 µM 0 | FLT3; 2.5 µM 0 | FLT3; 10 µM 0 | FYN; 2.5 µM 0 | FYN; 10 µM 0 | GSK3A; 2.5 µM 0 | GSK3A; 10 µM 0 | HER2; 2.5 µM 0 | HER2; 10 µM 0 | INSRR; 2.5 µM 0 | INSRR; 10 µM 0 | IRAK3; 2.5 µM 0 | IRAK3; 10 µM 0 | JAK1; 2.5 µM 0 | JAK1; 10 µM 0 | LCK; 2.5 µM 0 | LCK; 10 µM 0 | LIMK1; 2.5 µM 0 | LIMK1; 10 µM 0 | LIMK2; 2.5 µM 0 | LIMK2; 10 µM 0 | LMTK2; 2.5 µM 0 | LMTK2; 10 µM 0 | LYN; 2.5 µM 0 | LYN; 10 µM 0 | MAP2K1; 2.5 µM 0 | MAP2K1; 10 µM 0 | MAP2K2; 2.5 µM 0 | MAP2K2; 10 µM 0 | MAP4K2; 2.5 µM 0 | MAP4K2; 10 µM 0

N#CCC1(n2cc(-c3ncnc4[nH]ccc34)cn2)CN(C2CCN(C(=O)c3ccnc(C(F)(F)F)c3F)CC2)C1 [Itacitinib adipate]
inactive: ERN1; 10 µM 0 | FGFR1; 10 µM 0 | FGFR2; 10 µM 0 | FGFR3; 10 µM 0 | FGR; 10 µM 0 | FLT3; 10 µM 0 | FYN; 10 µM 0 | GSK3A; 10 µM 0 | HER2; 10 µM 0 | INSRR; 10 µM 0 | IRAK3; 10 µM 0 | JAK1; 10 µM 0 | LCK; 10 µM 0 | LIMK1; 10 µM 0 | LIMK2; 10 µM 0 | LMTK2; 10 µM 0 | LYN; 10 µM 0 | MAP2K1; 10 µM 0 | MAP2K2; 10 µM 0 | MAP4K2; 10 µM 0

Cc1ccc(NC(=O)c2ccc(CN3CCN(C)CC3)cc2)cc1Nc1nc(-c2cccnc2)cs1 [Masitinib (mesylate)]
inactive: ERN1; 2.5 µM 0 | FGFR1; 2.5 µM 0 | FGFR2; 2.5 µM 0 | FGFR3; 2.5 µM 0 | FGR; 2.5 µM 0 | FLT3; 2.5 µM 0 | FYN; 2.5 µM 0 | GSK3A; 2.5 µM 0 | HER2; 2.5 µM 0 | INSRR; 2.5 µM 0 | IRAK3; 2.5 µM 0 | JAK1; 2.5 µM 0 | LCK; 2.5 µM 0 | LIMK1; 2.5 µM 0 | LIMK2; 2.5 µM 0 | LMTK2; 2.5 µM 0 | LYN; 2.5 µM 0 | MAP2K1; 2.5 µM 0 | MAP2K2; 2.5 µM 0 | MAP4K2; 2.5 µM 0

N#CCNC(=O)c1ccc(-c2ccnc(Nc3ccc(N4CCOCC4)cc3)n2)cc1 [Momelotinib sulfate]
inactive: ERN1; 10 µM 0 | FGFR1; 10 µM 0 | FGFR2; 10 µM 0 | FGFR3; 10 µM 0 | FGR; 10 µM 0 | FLT3; 10 µM 0 | FYN; 10 µM 0 | GSK3A; 10 µM 0 | HER2; 10 µM 0 | INSRR; 10 µM 0 | IRAK3; 10 µM 0 | JAK1; 10 µM 0 | LCK; 10 µM 0 | LIMK1; 10 µM 0 | LIMK2; 10 µM 0 | LMTK2; 10 µM 0 | LYN; 10 µM 0 | MAP2K1; 10 µM 0 | MAP2K2; 10 µM 0 | MAP4K2; 10 µM 0
